Laboratory results as given in publication doi:10.1101/2024.06.26.599170.
No constants are given. Whether binding was seen depends on the method and setting. For some assays here: In cells and extracts the contact can be indirect. Some binding calls cover weakened binding; strength is not graded here. Sequences can lack the tags named with a protein.

T1: MED25, yeast two-hybrid fusion (Arabidopsis thaliana) (UniProt Q7XYY2)
T1 sequence: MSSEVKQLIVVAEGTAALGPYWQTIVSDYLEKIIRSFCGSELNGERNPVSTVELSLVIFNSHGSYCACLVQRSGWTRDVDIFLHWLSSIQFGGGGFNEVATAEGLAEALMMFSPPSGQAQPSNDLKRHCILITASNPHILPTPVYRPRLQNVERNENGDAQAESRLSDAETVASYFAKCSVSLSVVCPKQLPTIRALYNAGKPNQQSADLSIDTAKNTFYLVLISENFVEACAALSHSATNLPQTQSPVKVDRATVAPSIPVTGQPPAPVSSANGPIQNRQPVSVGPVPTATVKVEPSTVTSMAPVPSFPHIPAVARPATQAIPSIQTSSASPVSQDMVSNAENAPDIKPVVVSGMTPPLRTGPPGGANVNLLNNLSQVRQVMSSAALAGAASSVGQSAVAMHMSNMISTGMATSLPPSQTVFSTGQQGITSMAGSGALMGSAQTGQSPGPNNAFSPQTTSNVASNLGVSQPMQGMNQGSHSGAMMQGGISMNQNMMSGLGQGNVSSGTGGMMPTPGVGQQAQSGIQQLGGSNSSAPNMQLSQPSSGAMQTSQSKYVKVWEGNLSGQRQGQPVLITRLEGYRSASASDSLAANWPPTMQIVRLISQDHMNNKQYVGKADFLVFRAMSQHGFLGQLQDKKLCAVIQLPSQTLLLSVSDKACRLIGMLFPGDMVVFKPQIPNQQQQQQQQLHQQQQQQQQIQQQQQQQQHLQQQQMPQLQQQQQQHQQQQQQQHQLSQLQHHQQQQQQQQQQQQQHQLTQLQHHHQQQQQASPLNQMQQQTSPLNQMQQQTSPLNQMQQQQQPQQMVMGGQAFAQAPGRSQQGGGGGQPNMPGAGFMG

T2: MED8, yeast two-hybrid fusion (Arabidopsis thaliana) (UniProt Q4V3C1)
T2 sequence: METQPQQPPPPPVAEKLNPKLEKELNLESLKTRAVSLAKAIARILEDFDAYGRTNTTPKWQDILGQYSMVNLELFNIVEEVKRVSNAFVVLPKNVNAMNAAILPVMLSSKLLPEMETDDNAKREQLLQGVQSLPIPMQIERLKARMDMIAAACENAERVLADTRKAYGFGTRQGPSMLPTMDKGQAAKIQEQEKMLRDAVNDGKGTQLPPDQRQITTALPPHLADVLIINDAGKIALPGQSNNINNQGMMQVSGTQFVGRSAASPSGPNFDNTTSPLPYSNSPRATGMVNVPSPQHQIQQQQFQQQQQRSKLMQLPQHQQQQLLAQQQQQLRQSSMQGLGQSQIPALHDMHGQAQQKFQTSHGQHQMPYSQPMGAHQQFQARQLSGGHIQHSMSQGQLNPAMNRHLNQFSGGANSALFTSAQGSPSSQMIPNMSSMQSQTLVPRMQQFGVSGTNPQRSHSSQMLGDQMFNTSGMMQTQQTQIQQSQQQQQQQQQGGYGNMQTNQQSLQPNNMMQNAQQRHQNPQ

T3: HA-IAA9^P188S (Arabidopsis thaliana) (UniProt Q38827)
T3 sequence: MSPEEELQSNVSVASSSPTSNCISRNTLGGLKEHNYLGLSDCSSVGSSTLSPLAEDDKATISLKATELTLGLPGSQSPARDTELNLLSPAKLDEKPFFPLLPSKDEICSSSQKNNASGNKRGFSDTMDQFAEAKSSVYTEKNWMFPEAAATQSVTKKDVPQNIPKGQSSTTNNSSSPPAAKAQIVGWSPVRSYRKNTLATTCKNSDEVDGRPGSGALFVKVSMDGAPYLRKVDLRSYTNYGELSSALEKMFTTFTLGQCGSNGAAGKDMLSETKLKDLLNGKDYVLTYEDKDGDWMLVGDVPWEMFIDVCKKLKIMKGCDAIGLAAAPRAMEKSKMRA


Columns and labels:
[1] = biological target: T1, MED25, yeast two-hybrid fusion (Arabidopsis thaliana); assay: two-hybrid
[2] = biological target: T2, MED8, yeast two-hybrid fusion (Arabidopsis thaliana); assay: two-hybrid
[3] = biological target: T3, HA-IAA9^P188S (Arabidopsis thaliana); assay: co-IP

| binding [1] | binding [2] | binding [3] | Binder |
| --- | --- | --- | --- |
| no binding | binds |  | ARF6, yeast two-hybrid fusion (protein, UniProt Q9ZTX8 1-935) MRLSSAGFNPQPHEVTGEKRVLNSELWHACAGPLVSLPPVGSRVVYFPQGHSEQVAASTNKEVDAHIPNYPSLHPQLICQLHNVTMHADVETDEVYAQMTLQPLNAQEQKDPYLPAELGVPSRQPTNYFCKTLTASDTSTHGGFSVPRRAAEKVFPPLDYSQQPPAQELMARDLHDNEWKFRHIFRGQPKRHLLTTGWSVFVSAKRLVAGDSVLFIWNDKNQLLLGIRRANRPQTVMPSSVLSSDSMHLGLLAAAAHAAATNSRFTIFYNPRASPSEFVIPLAKYVKAVYHTRVSVGMRFRMLFETEESSVRRYMGTITGICDLDPTRWANSHWRSVKVGWDESTAGERQPRVSLWEIEPLTTFPMYPSPFPLRLKRPWPPGLPSFHGLKEDDMGMSMSSPLMWDRGLQSLNFQGMGVNPWMQPRLDTSGLLGMQNDVYQAMAAAALQDMRGIDPAKAAASLLQFQNSPGFSMQSPSLVQPQMLQQQLSQQQQQLSQQQQQQQQLSQQQQQQLSQQQQQQLSQQQQQQLSQQQQQQAYLGVPETHQPQSQAQSQSNNHLSQQQQQVVDNHNPSASSAAVVSAMSQFGSASQPNTSPLQSMTSLCHQQSFSDTNGGNNPISPLHTLLSNFSQDESSQLLHLTRTNSAMTSSGWPSKRPAVDSSFQHSGAGNNNTQSVLEQLGQSHTSNVPPNAVSLPPFPGGRECSIEQEGSASDPHSHLLFGVNIDSSSLLMPNGMSNLRSIGIEGGDSTTLPFTSSNFNNDFSGNLAMTTPSSCIDESGFLQSSENLGSENPQSNTFVKVYKSGSFGRSLDISKFSSYHELRSELARMFGLEGQLEDPVRSGWQLVFVDRENDVLLLGDDPWPEFVSSVWCIKILSPQEVQQMGKRGLELLNSAPSSNNVDKLPSNGNCDDFGNRSDPRNLGNGIASVGGSFNY |
| no binding | binds |  | ARF8, yeast two-hybrid fusion (protein, UniProt Q9FGV1 1-811) MKLSTSGLGQQGHEGEKCLNSELWHACAGPLVSLPSSGSRVVYFPQGHSEQVAATTNKEVDGHIPNYPSLPPQLICQLHNVTMHADVETDEVYAQMTLQPLTPEEQKETFVPIELGIPSKQPSNYFCKTLTASDTSTHGGFSVPRRAAEKVFPPLDYTLQPPAQELIARDLHDVEWKFRHIFRGQPKRHLLTTGWSVFVSAKRLVAGDSVIFIRNEKNQLFLGIRHATRPQTIVPSSVLSSDSMHIGLLAAAAHASATNSCFTVFFHPRASQSEFVIQLSKYIKAVFHTRISVGMRFRMLFETEESSVRRYMGTITGISDLDSVRWPNSHWRSVKVGWDESTAGERQPRVSLWEIEPLTTFPMYPSLFPLRLKRPWHAGTSSLPDGRGDLGSGLTWLRGGGGEQQGLLPLNYPSVGLFPWMQQRLDLSQMGTDNNQQYQAMLAAGLQNIGGGDPLRQQFVQLQEPHHQYLQQSASHNSDLMLQQQQQQQASRHLMHAQTQIMSENLPQQNMRQEVSNQPAGQQQQLQQPDQNAYLNAFKMQNGHLQQWQQQSEMPSPSFMKSDFTDSSNKFATTASPASGDGNLLNFSITGQSVLPEQLTTEGWSPKASNTFSEPLSLPQAYPGKSLALEPGNPQNPSLFGVDPDSGLFLPSTVPRFASSSGDAEASPMSLTDSGFQNSLYSCMQDTTHELLHGAGQINSSNQTKNFVKVYKSGSVGRSLDISRFSSYHELREELGKMFAIEGLLEDPLRSGWQLVFVDKENDILLLGDDPWESFVNNVWYIKILSPEDVHQMGDHGEGSGGLFPQNPTHL |
|  |  | binds | Myc-SPY (SPINDLY) (enzyme, UniProt Q96301 1-914) MVGLEDDTERERSPVVENGFSNGSRSSSSSAGVLSPSRKVTQGNDTLSYANILRARNKFADALALYEAMLEKDSKNVEAHIGKGICLQTQNKGNLAFDCFSEAIRLDPHNACALTHCGILHKEEGRLVEAAESYQKALMADASYKPAAECLAIVLTDLGTSLKLAGNTQEGIQKYYEALKIDPHYAPAYYNLGVVYSEMMQYDNALSCYEKAALERPMYAEAYCNMGVIYKNRGDLEMAITCYERCLAVSPNFEIAKNNMAIALTDLGTKVKLEGDVTQGVAYYKKALYYNWHYADAMYNLGVAYGEMLKFDMAIVFYELAFHFNPHCAEACNNLGVLYKDRDNLDKAVECYQMALSIKPNFAQSLNNLGVVYTVQGKMDAAASMIEKAILANPTYAEAFNNLGVLYRDAGNITMAIDAYEECLKIDPDSRNAGQNRLLAMNYINEGLDDKLFEAHRDWGWRFTRLHPQYTSWDNLKDPERPITIGYISPDFFTHSVSYFIEAPLTHHDYTKYKVVVYSAVVKADAKTYRFRDKVLKKGGVWKDIYGIDEKKIASMVREDKIDILVELTGHTANNKLGTMACRPAPVQVTWIGYPNTTGLPTVDYRITDSLADPPDTKQKQVEELVRLPDCFLCYTPSPEAGPVCPTPALSNGFVTFGSFNNLAKITPKVLQVWARILCAVPNSRLVVKCKPFCCDSIRQRFLTTLEQLGLESKRVDLLPLILFNHDHMQAYSLMDISLDTFPYAGTTTTCESLYMGVPCVTMAGSVHAHNVGVSLLTKVGLGHLVAKNEDEYVQLSVDLASDVTALSKLRMSLRDLMAGSPVCNGPSFAVGLESAYRNMWKKYCKGEVPSLRRMEMLQKEVHDDPLISKDLGPSRVSVTGEATPSLKANGSAPVPSSLPTQSPQLSKRMDSTS |
